Data as given in patent US20070042947A1 (Takeda Pharmaceutical Company Limited, priority 2003, published 2007).

Key:
[1] = general procedure: Fmoc solid-phase peptide synthesis; Wang resin; HBTU; details: whole synthesis, scale 0.25 mmol
[2] = general procedure: Fmoc solid-phase peptide synthesis; Wang (p-benzyloxybenzyl alcohol) resin; HBTU; details: whole synthesis, scale of the general procedure 0.25 mmol

With [Phe^2] Human GPR8 Ligand (1-20) the isolated mass [1] was 35 mg and the “final HPLC purity” value [2] was 98.8%.
